# This is one part of the list.
# B1: HA-61200 (Pseudomonas aeruginosa), Q02SP8_PSEAB (protein)
# chain: MNKCYALVWNVSQGCWNVVSEGSRRRGKPAGAKAAIASVLALLGATALAPAYALPSGGTVVGGSANGEIHLSGGNSLSVNQKVDKLIANWDSFSVAAGERVIFNQPSSSSIALNRVIGTKASDIQGRIDANGQVFLVNPNGVLFGRGAQVNVGGLVASTLDITDAEFNGNSSRYRFTGPSTNGVLNHGGAITAAEGGSIALLGAQVDNRGTVLAQMGGVGLGAGSDLTLNFDGNKLLDIRVDAGVANALASNGGLLKADGGRVLMAARTANALLNTVVNSQGAIEARSLRGKNGRIVLDG
# Experiments:
# Assay in all cases: glycan array binding signal (z-score within array); higher = stronger binding
# Conditions in all cases: glycan notation: IUPAC condensed, linker removed
# [1] = molecular target: Gal(b1-4)GlcNAc(b1-6)Gal(b1-4)GlcNAc
# In short: (§1)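 From the Consortium for Functional Glycomics database, 3228 arrays were curated, keeping only those whose protein sequence was available. Binding is given as a within-array Z-score averaged across arrays sharing a protein sequence and across linkers. Negative Z-scores can be read as non-binding.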
# [2] = molecular target: Gal(b1-4)GlcNAc(b1-6)GalNAc
# In short: as §1
# [3] = molecular target: Gal(b1-4)GlcNAc(b1-6)[Gal(b1-3)]GalNAc
# In short: as §1
# [4] = molecular target: Gal(b1-4)GlcNAc(b1-6)[Gal(b1-4)GlcNAc(b1-3)]GalNAc
# In short: as §1
# Gal(b1-4)GlcNAc6P = molecular target: Gal(b1-4)GlcNAc6P
# In short: as §1
# Gal(b1-6)Gal = molecular target: Gal(b1-6)Gal
# In short: as §1
# Gal3S(b1-3)GalNAc = molecular target: Gal3S(b1-3)GalNAc
# In short: as §1
# Gal3S(b1-3)GlcNAc = molecular target: Gal3S(b1-3)GlcNAc
# In short: as §1
# [5] = molecular target: Gal3S(b1-3)[Fuc(a1-4)]GlcNAc
# In short: as §1
# Gal3S(b1-4)Glc = molecular target: Gal3S(b1-4)Glc
# In short: as §1
# Gal3S(b1-4)Glc6S = molecular target: Gal3S(b1-4)Glc6S
# In short: as §1
# Gal3S(b1-4)GlcNAc = molecular target: Gal3S(b1-4)GlcNAc
# In short: as §1
# [6] = molecular target: Gal3S(b1-4)[Fuc(a1-3)]Glc6S
# In short: as §1
# [7] = molecular target: Gal3S(b1-4)[Fuc(a1-3)]GlcNAc
# In short: as §1
# [8] = molecular target: Gal3S(b1-4)[Fuc(a1-3)]GlcNAc6S
# In short: as §1
# Gal3S4S(b1-4)GlcNAc = molecular target: Gal3S4S(b1-4)GlcNAc
# In short: as §1
# Gal3S6S(b1-4)GlcNAc = molecular target: Gal3S6S(b1-4)GlcNAc
# In short: as §1
# Gal3S6S(b1-4)GlcNAc6S = molecular target: Gal3S6S(b1-4)GlcNAc6S
# In short: as §1
# Gal4S(b1-4)GlcNAc = molecular target: Gal4S(b1-4)GlcNAc
# In short: as §1
# Gal4S6S(b1-4)GlcNAc = molecular target: Gal4S6S(b1-4)GlcNAc
# In short: as §1
# Gal6P(b1-4)GlcNAc = molecular target: Gal6P(b1-4)GlcNAc
# In short: as §1
# Gal6S(b1-3)GlcNAc = molecular target: Gal6S(b1-3)GlcNAc
# In short: as §1
# Gal6S(b1-3)GlcNAc6S = molecular target: Gal6S(b1-3)GlcNAc6S
# In short: as §1
# Gal6S(b1-4)Glc = molecular target: Gal6S(b1-4)Glc
# In short: as §1
# Gal6S(b1-4)Glc6S = molecular target: Gal6S(b1-4)Glc6S
# In short: as §1
# Gal6S(b1-4)GlcNAc = molecular target: Gal6S(b1-4)GlcNAc
# In short: as §1
# Gal6S(b1-4)GlcNAc6S = molecular target: Gal6S(b1-4)GlcNAc6S
# In short: as §1
# GalNAc(a1-3)Gal = molecular target: GalNAc(a1-3)Gal
# In short: as §1
# GalNAc(a1-3)GalNAc = molecular target: GalNAc(a1-3)GalNAc
# In short: as §1
# [9] = molecular target: GalNAc(a1-3)GalNAc(b1-3)Gal(a1-4)Gal(b1-4)Glc
# In short: as §1
# [10] = molecular target: GalNAc(a1-3)GalNAc(b1-3)Gal(a1-4)Gal(b1-4)GlcNAc
# In short: as §1
# GalNAc(b1-3)Gal = molecular target: GalNAc(b1-3)Gal
# In short: as §1
# [11] = molecular target: GalNAc(b1-3)Gal(a1-4)Gal(b1-4)GlcNAc
# In short: as §1
# [12] = molecular target: GalNAc(b1-3)Gal(a1-4)Gal(b1-4)GlcNAc(b1-3)Gal(b1-4)Glc
# In short: as §1
# [13] = molecular target: GalNAc(b1-3)Gal(a1-6)Gal(b1-4)Glc
# In short: as §1
# GalNAc(b1-3)GalNAc = molecular target: GalNAc(b1-3)GalNAc
# In short: as §1
# GalNAc(b1-3)GlcNAc = molecular target: GalNAc(b1-3)GlcNAc
# In short: as §1
# GalNAc(b1-4)Gal(b1-4)Glc = molecular target: GalNAc(b1-4)Gal(b1-4)Glc
# In short: as §1
binder,measurement,setting,value
B1,glycan array binding signal (z-score),[1],-0.569
same,glycan array binding signal (z-score),[2],0.119
same,glycan array binding signal (z-score),[3],0.041
same,glycan array binding signal (z-score),[4],0.009
same,glycan array binding signal (z-score),Gal(b1-4)GlcNAc6P,-0.567
same,glycan array binding signal (z-score),Gal(b1-6)Gal,0.023
same,glycan array binding signal (z-score),Gal3S(b1-3)GalNAc,1.45
same,glycan array binding signal (z-score),Gal3S(b1-3)GlcNAc,-0.794
same,glycan array binding signal (z-score),[5],0.232
same,glycan array binding signal (z-score),Gal3S(b1-4)Glc,0.822
same,glycan array binding signal (z-score),Gal3S(b1-4)Glc6S,-0.263
same,glycan array binding signal (z-score),Gal3S(b1-4)GlcNAc,-0.009
same,glycan array binding signal (z-score),[6],1.15
same,glycan array binding signal (z-score),[7],0.034
same,glycan array binding signal (z-score),[8],-0.081
same,glycan array binding signal (z-score),Gal3S4S(b1-4)GlcNAc,-0.879
same,glycan array binding signal (z-score),Gal3S6S(b1-4)GlcNAc,2.33
same,glycan array binding signal (z-score),Gal3S6S(b1-4)GlcNAc6S,0.707
same,glycan array binding signal (z-score),Gal4S(b1-4)GlcNAc,-0.564
same,glycan array binding signal (z-score),Gal4S6S(b1-4)GlcNAc,0.034
same,glycan array binding signal (z-score),Gal6P(b1-4)GlcNAc,-0.318
same,glycan array binding signal (z-score),Gal6S(b1-3)GlcNAc,-0.566
same,glycan array binding signal (z-score),Gal6S(b1-3)GlcNAc6S,-0.233
same,glycan array binding signal (z-score),Gal6S(b1-4)Glc,-0.001
same,glycan array binding signal (z-score),Gal6S(b1-4)Glc6S,-1.37
same,glycan array binding signal (z-score),Gal6S(b1-4)GlcNAc,0.328
same,glycan array binding signal (z-score),Gal6S(b1-4)GlcNAc6S,-0.661
same,glycan array binding signal (z-score),GalNAc(a1-3)Gal,-0.485
same,glycan array binding signal (z-score),GalNAc(a1-3)GalNAc,0.174
same,glycan array binding signal (z-score),[9],0.612
same,glycan array binding signal (z-score),[10],-0.259
same,glycan array binding signal (z-score),GalNAc(b1-3)Gal,0.635
same,glycan array binding signal (z-score),[11],0.021
same,glycan array binding signal (z-score),[12],0.599
same,glycan array binding signal (z-score),[13],-0.559
same,glycan array binding signal (z-score),GalNAc(b1-3)GalNAc,-0.83
same,glycan array binding signal (z-score),GalNAc(b1-3)GlcNAc,-0.596
same,glycan array binding signal (z-score),GalNAc(b1-4)Gal(b1-4)Glc,-0.358

# An excerpt from the list above:
binder,measurement,setting,value
B1,glycan array binding signal (z-score),Gal3S(b1-4)GlcNAc,-0.009
same,glycan array binding signal (z-score),[6],1.15
same,glycan array binding signal (z-score),[7],0.034
same,glycan array binding signal (z-score),[8],-0.081
same,glycan array binding signal (z-score),Gal3S4S(b1-4)GlcNAc,-0.879
same,glycan array binding signal (z-score),Gal3S6S(b1-4)GlcNAc,2.33
same,glycan array binding signal (z-score),Gal3S6S(b1-4)GlcNAc6S,0.707
same,glycan array binding signal (z-score),Gal4S(b1-4)GlcNAc,-0.564
same,glycan array binding signal (z-score),Gal4S6S(b1-4)GlcNAc,0.034

# — the supplement of paper PMC8728848
